# Experimental data taken from patent US20240299405A1, “APPLICATION OF ATP POTASSIUM CHANNEL MODIFIER IN PREPARATION OF ANTI-DIABETIC NEPHROPATHY DRUG” (HANGZHOU QIAN BIOTECHNOLOGY LTD, priority 2020, published 2024).
# At least one compound was matched to its structure with a doubt left.
# System: STZ diabetic rat models (diabetic nephropathy)
# Assay: Urine microalbumin (mALB) by ELISA in STZ plus high-fat diet diabetic nephropathy rat model
# Format: in vivo, SD rats
# Conditions: week 30, p<0.05
# Text: STZ substantially and excessively damages islet-β cells through chemical toxicity (Saini K, Thompson C, Winterford C M, Walker N I, Cameron D P. Streptozotocin at low doses induces apoptosis and at high doses causes necrosis in a murine pancreatic b cell line, INS1[J]. International Union of Biochemistry and Molecular Biology Life. 1996, 39(6): 1229-1236). The pathophysiological characteristics of STZ modeled rats are relatively close to that of humans. Their blood can be collected repeatedly to monitor index changes and enough kidney tissues can be obtained for subsequent tissue section analysis. Therefore, STZ diabetic rat models are used. In addition, due to the high toxicity of STZ, multiple injections at low doses can establish better models. Keep feeding a high-fat diet daily after modeling until the end of the experiment. A high-fat diet can cause diabetic nephropathy in STZ rats. […]
# Rat urine collection: urine is collected by metabolic cage, urine is collected after 24 h, the total amount of urine is recorded, and the urine output at 24 h is calculated. […]
# A 24 h urine sample was collected from rats for testing, and the collected sample was centrifuged at 15 min, centrifuged at 4° C. at 1000 ref for 20 min, and the mALB value was detected by supernatant or stored at −20° C. […]
smiles,measurement,value
COC(=O)C1=C(C)NC(C)=C(C(=O)OCCN(C)Cc2ccccc2)C1c1cccc([N+](=O)[O-])c1 (stereo not shown) [nicardipine],effect on reducing the amount of microalbumin in diabetic nephropathy urine compared with the negative control group,significant effect
